# Source: paper PMC8290231 (Cancer Medicine, 2021)
# Read-outs that look alike come from different tables or passages of the source.
# What was measured:
# Type in all cases: cell-based
# [1] = tested on: FGFR1 signal pathway in Ba/F3‐FGFR1‐V561F; experiment: Western blot of FGFR1 signal pathway; details: 300 nM
# Experimental: (§1) Cells were treated with different concentrations of compound or DMSO for indicated time. Then, cells were lysed with 1 × SDS sample lysis buffer (recommended by CST). […] After blocking with 5% BSA in TBST solution (0.5% Tween‐20) at room temperature for 4 hrs, the membranes were incubated with the corresponding primary antibody (1:2000–1:200) at 4℃ overnight. After washing with TBST for 3–5 times, the HRP‐conjugated secondary antibodies were incubated for 2 hrs. The protein signals were detected with Amersham Imager 600 system (GE, Boston, MA, USA) using an ECL western blotting detection kit (Thermo Fisher Scientific, Waltham, MA, USA).
# (§2) Cell lysates were separated by sodium dodecyl sulfate‐polyacrylamide gel electrophoresis (SDS‐PAGE) and analyzed by western blot for phosphorylated FGFR1, FGFR1, phosphorylated FRS2, FRS2, phosphorylated AKT (Ser473), AKT, phosphorylated Erk, and Erk. GAPDH was used as a control
# [2] = tested on: FGFR1 signal pathway in Ba/F3‐FGFR1‐V561M; experiment: Western blot of FGFR1 signal pathway; details: 300 nM
# Experimental: as §1, §2
# [3] = tested on: Ba/F3‐FGFR1; experiment: CCK-8 proliferation assay in Ba/F3 stable cells; details: Mus musculus, BaF3, 72 h, read-out: IC50 (μΜ) Ba/F3‐FGFR1
# Experimental: (§3) The Ba/F3 cell lines stably expressing FGFR1, FGFR1‐V561M, FGFR1‐V561F, FGFR1‐K656N, and FGFR1‐K656E were self‐established through electroporation pCDNA3.1‐TEL plasmids using the Amaxa Cell Line Nucleofector Kit V (Lonza, Cologne, Germany). Stable cell lines were selected by G418 (Merck, USA) and then withdrawal of IL‐3 (R&D). […] Parental Ba/F3 cells were maintained in RPMI 1640 supplemented with 10% FBS, 100 U/ml of penicillin, […] of streptomycin, and 10 ng/ml of IL‐3, while all Ba/F3 stable cell lines were cultured in the same medium without IL‐3.
# (§4) Cells were seeded in 96‐well plate in complete medium (1000–6000 cells/well) and cultured for overnight. Then the cells were exposed to gradient concentrations (0.0005–10 μM) of compounds. Cell proliferation was analyzed by Cell Counting Kit 8 (CK04, Dojindo Laboratories, Japan) after co‐incubation for a further 72 h. IC50 values were calculated by fitting of concentration–response curves using GraphPad Prism 8.01 software. Each assay was repeated at least three times.
# (§5) There is, however, no commercially available FGFR1 mutant kinase to validate this. Therefore, we constructed Ba/F3 model cells stably expressing FGFR1‐WT, K656E, K656N, V561M, and V561F mutations.
# [4] = tested on: Ba/F3‐FGFR1‐V561M; experiment: CCK-8 proliferation assay in Ba/F3 stable cells; details: Mus musculus, BaF3, 72 h, read-out: IC50 (μΜ) Ba/F3‐FGFR1‐V561M
# Experimental: as §3, §4, §5
# [5] = tested on: Ba/F3‐FGFR1‐V561F; experiment: CCK-8 proliferation assay in Ba/F3 stable cells; details: Mus musculus, BaF3, 72 h, read-out: IC50 (μΜ) Ba/F3‐FGFR1‐V561F
# Experimental: as §3, §4, §5
# [6] = tested on: Ba/F3‐FGFR1‐K656N; experiment: CCK-8 proliferation assay in Ba/F3 stable cells; details: Mus musculus, BaF3, 72 h, read-out: IC50 (μΜ) Ba/F3‐FGFR1‐K656N
# Experimental: as §3, §4, §5
# [7] = tested on: Ba/F3‐FGFR1‐K656E; experiment: CCK-8 proliferation assay in Ba/F3 stable cells; details: Mus musculus, BaF3, 72 h, read-out: IC50 (μΜ) Ba/F3‐FGFR1‐K656E
# Experimental: as §3, §4, §5
# [8] = tested on: Ba/F3(+IL‐3); experiment: CCK-8 proliferation assay in parental Ba/F3 cells; details: Mus musculus, read-out: IC50 (μΜ) Ba/F3(+IL‐3)
# Experimental: as §3, §4, §5
SMILES,activation of FGFR1 and its signal pathway [1],activation of FGFR1 and its signal pathway [2],IC50 [3] [µM],IC50 [4] [µM],IC50 [5] [µM],IC50 [6] [µM],IC50 [7] [µM],"IC50 ([8]; BaF3, 72 h) [µM]","IC50 ([8]; BaF3, parental cells with IL-3, CCK-8, 72 h) [µM]"
C=CC(=O)N1CC[C@H](n2nc(C#Cc3cc(OC)cc(OC)c3)c3c(N)ncnc32)C1 [TAS120],no effects,no effects,0.0068 ± 0.0006,1.46 ± 0.12,1 ± 0.067,0.01 ± 0.0022,0.017 ± 0.0022,> 10,
COc1cc(OC)cc(N(CCNC(C)C)c2ccc3ncc(-c4cnn(C)c4)nc3c2)c1 [Erdafitinib],,,,,,,,,3.4 ± 0.032
